Data reported in PubChem BioAssay AID504450 (Broad Institute, 2011).
This list was built around the results that the source calls inconclusive (neither active nor inactive); the mix of calls is not that of the screen. Active and inactive are the calls of the source.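 The calls were made as follows: active = signal falls, and half-maximal potency stays within ten times the top tested dose in every run; inconclusive = runs disagree, or a flat partial drop, or a poor fit; inactive = inactive every run, flat, wrong way or too weak.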

Experiment: viability loss of control HMLE line – cell-based, HMLE_sh_eGFP, luminescence, powder samples, set 4, counter-screen for breast cancer stem cell project, dose response (AID 504450)
Conditions: CellTiter-Glo luminescence, 72 h; at 30 µM (top of the series)
Method in brief: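 Assay system – HMLE_sh_eGFP cells · Buffer or medium – serum-free CSC medium · Doses – 100 nL compound added by pin transfer per well · Incubation – compound exposure about 70-74 h at 37 °C, 5% CO2 · Detection – CellTiter-Glo ATP luminescence, reagent diluted 1:3 in PBS, 12 min incubation · Control set – DMSO-only neutral wells and puromycin-treated positive wells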

SMILES | activity change, negative = viability loss
COc1ccccc1/C=C/C(=O)NC1=NCCS1 | inconclusive: -9.55%
O=C(N/N=C/c1ccn[nH]1)c1cc2ccccc2o1 | inactive: 16.4%
O=C(COc1ccc(Cl)cc1Cl)N/N=C/c1ccn[nH]1 | inactive: 6.79%
